Source: patent US20110038885A1 (priority 2007, published 2011)

Experiment: general procedure: Fmoc solid-phase peptide synthesis; Rink Amide MBHA resin (0.58 mmol/g or 0.78 mmol/g); Wang resin for C-terminal acids; DIC/HOBt
Details: whole synthesis, analytical HPLC, scale of the general procedure 0.090 mmol

Substance | purity (crude or final not stated) [%]
H-[dC][dQ][dI][dW][dK][dC]-NH2 (disulfide 1-6; SMILES CC[C@@H](C)[C@H]1NC(=O)[C@@H](CCC(N)=O)NC(=O)[C@H](N)CSSC[C@H](C(N)=O)NC(=O)[C@@H](CCCCN)NC(=O)[C@@H](Cc2c[nH]c3ccccc23)NC1=O) | 99
H-[dC][dQ][dI][dW][dK][dQ][dK][dP][dD](X2)[dL][dC]-NH2 (disulfide 1-11; SMILES CCCCCCOC(=O)C[C@H]1NC(=O)[C@H]2CCCN2C(=O)[C@@H](CCCCN)NC(=O)[C@@H](CCC(N)=O)NC(=O)[C@@H](CCCCN)NC(=O)[C@@H](Cc2c[nH]c3ccccc23)NC(=O)[C@@H]([C@H](C)CC)NC(=O)[C@@H](CCC(N)=O)NC(=O)[C@H](N)CSSC[C@H](C(N)=O)NC(=O)[C@@H](CC(C)C)NC1=O) | 99
H-[dC][dQ][dI][dW][dK][dQ][dK][dP][dD]K(Octanoyl)[dL][dC]-OH (disulfide 1-12; SMILES CCCCCCCC(=O)NCCCC[C@@H]1NC(=O)[C@@H](CC(=O)O)NC(=O)[C@H]2CCCN2C(=O)[C@@H](CCCCN)NC(=O)[C@@H](CCC(N)=O)NC(=O)[C@@H](CCCCN)NC(=O)[C@@H](Cc2c[nH]c3ccccc23)NC(=O)[C@@H]([C@H](C)CC)NC(=O)[C@@H](CCC(N)=O)NC(=O)[C@H](N)CSSC[C@H](C(=O)O)NC(=O)[C@@H](CC(C)C)NC1=O) | 99
H-[dC][dQ][dI][dW][dK][dQ][dK][dP][dD][dL]K(Octanoyl)[dC]-NH2 (disulfide 1-12; SMILES CCCCCCCC(=O)NCCCC[C@@H]1NC(=O)[C@@H](CC(C)C)NC(=O)[C@@H](CC(=O)O)NC(=O)[C@H]2CCCN2C(=O)[C@@H](CCCCN)NC(=O)[C@@H](CCC(N)=O)NC(=O)[C@@H](CCCCN)NC(=O)[C@@H](Cc2c[nH]c3ccccc23)NC(=O)[C@@H]([C@H](C)CC)NC(=O)[C@@H](CCC(N)=O)NC(=O)[C@H](N)CSSC[C@H](C(N)=O)NC1=O) | 99
H-[dC][dQ][dI][dW][dK][dQ][dK][dP][dD][dL][dC]DK(Octanoyl)-OH (disulfide 1-11; SMILES CCCCCCCC(=O)NCCCC[C@H](NC(=O)[C@H](CC(=O)O)NC(=O)[C@H]1CSSC[C@@H](N)C(=O)N[C@H](CCC(N)=O)C(=O)N[C@H]([C@H](C)CC)C(=O)N[C@H](Cc2c[nH]c3ccccc23)C(=O)N[C@H](CCCCN)C(=O)N[C@H](CCC(N)=O)C(=O)N[C@H](CCCCN)C(=O)N2CCC[C@@H]2C(=O)N[C@H](CC(=O)O)C(=O)N[C@H](CC(C)C)C(=O)N1)C(=O)O) | 99
H-[dC][dQ][dI][dW][dK][dQ][dK][dP][dD][dL][dC]D[Aoc]-OH (disulfide 1-11; SMILES CC[C@@H](C)[C@H]1NC(=O)[C@@H](CCC(N)=O)NC(=O)[C@H](N)CSSC[C@H](C(=O)N[C@@H](CC(=O)O)C(=O)NCCCCCCCC(=O)O)NC(=O)[C@@H](CC(C)C)NC(=O)[C@@H](CC(=O)O)NC(=O)[C@H]2CCCN2C(=O)[C@@H](CCCCN)NC(=O)[C@@H](CCC(N)=O)NC(=O)[C@@H](CCCCN)NC(=O)[C@@H](Cc2c[nH]c3ccccc23)NC1=O) | 99
H-[dC][dQ][dI][dW][dK][dQ][dK][dP][dD][dL][dC]E[Aoc]-OH (disulfide 1-11; SMILES CC[C@@H](C)[C@H]1NC(=O)[C@@H](CCC(N)=O)NC(=O)[C@H](N)CSSC[C@H](C(=O)N[C@@H](CCC(=O)O)C(=O)NCCCCCCCC(=O)O)NC(=O)[C@@H](CC(C)C)NC(=O)[C@@H](CC(=O)O)NC(=O)[C@H]2CCCN2C(=O)[C@@H](CCCCN)NC(=O)[C@@H](CCC(N)=O)NC(=O)[C@@H](CCCCN)NC(=O)[C@@H](Cc2c[nH]c3ccccc23)NC1=O) | 99
H-[dC][dQ][dI][dW][dK][dQ][dK][dP][dD][dL][dC]IE[Aoc]-OH (disulfide 1-11; SMILES CC[C@@H](C)[C@H]1NC(=O)[C@@H](CCC(N)=O)NC(=O)[C@H](N)CSSC[C@H](C(=O)N[C@H](C(=O)N[C@@H](CCC(=O)O)C(=O)NCCCCCCCC(=O)O)[C@@H](C)CC)NC(=O)[C@@H](CC(C)C)NC(=O)[C@@H](CC(=O)O)NC(=O)[C@H]2CCCN2C(=O)[C@@H](CCCCN)NC(=O)[C@@H](CCC(N)=O)NC(=O)[C@@H](CCCCN)NC(=O)[C@@H](Cc2c[nH]c3ccccc23)NC1=O) | 99
H-[dC][dQ][dI][dW][dK][dQ][dK][dP][dD][dL][dC]K(Octanoyl)-OH (disulfide 1-11; SMILES CCCCCCCC(=O)NCCCC[C@H](NC(=O)[C@H]1CSSC[C@@H](N)C(=O)N[C@H](CCC(N)=O)C(=O)N[C@H]([C@H](C)CC)C(=O)N[C@H](Cc2c[nH]c3ccccc23)C(=O)N[C@H](CCCCN)C(=O)N[C@H](CCC(N)=O)C(=O)N[C@H](CCCCN)C(=O)N2CCC[C@@H]2C(=O)N[C@H](CC(=O)O)C(=O)N[C@H](CC(C)C)C(=O)N1)C(=O)O) | 99
H-[dC][dQ][dI][dW][dK][dQ][dK][dP][dD][dL][dC][AEEA]K(Octanoyl)-OH (disulfide 1-11; SMILES CCCCCCCC(=O)NCCCC[C@H](NC(=O)COCCOCCNC(=O)[C@H]1CSSC[C@@H](N)C(=O)N[C@H](CCC(N)=O)C(=O)N[C@H]([C@H](C)CC)C(=O)N[C@H](Cc2c[nH]c3ccccc23)C(=O)N[C@H](CCCCN)C(=O)N[C@H](CCC(N)=O)C(=O)N[C@H](CCCCN)C(=O)N2CCC[C@@H]2C(=O)N[C@H](CC(=O)O)C(=O)N[C@H](CC(C)C)C(=O)N1)C(=O)O) | 99
H-[dC][dQ][dI][dW][dK][dQ][dK][dP][dD][dL][dC][AEEA][Aoc]-OH (disulfide 1-11; SMILES CC[C@@H](C)[C@H]1NC(=O)[C@@H](CCC(N)=O)NC(=O)[C@H](N)CSSC[C@H](C(=O)NCCOCCOCC(=O)NCCCCCCCC(=O)O)NC(=O)[C@@H](CC(C)C)NC(=O)[C@@H](CC(=O)O)NC(=O)[C@H]2CCCN2C(=O)[C@@H](CCCCN)NC(=O)[C@@H](CCC(N)=O)NC(=O)[C@@H](CCCCN)NC(=O)[C@@H](Cc2c[nH]c3ccccc23)NC1=O) | 94
H-[dC][dQ][dI][dW][dK][dQ][dK][dP][dD][dL][dC][Ahx]-OH (disulfide 1-11; SMILES CC[C@@H](C)[C@H]1NC(=O)[C@@H](CCC(N)=O)NC(=O)[C@H](N)CSSC[C@H](C(=O)NCCCCCC(=O)O)NC(=O)[C@@H](CC(C)C)NC(=O)[C@@H](CC(=O)O)NC(=O)[C@H]2CCCN2C(=O)[C@@H](CCCCN)NC(=O)[C@@H](CCC(N)=O)NC(=O)[C@@H](CCCCN)NC(=O)[C@@H](Cc2c[nH]c3ccccc23)NC1=O) | 94
H-[dC][dQ][dI][dW][dK][dQ][dK][dP][dD][dL][dC][Aoc]-OH (disulfide 1-11; SMILES CC[C@@H](C)[C@H]1NC(=O)[C@@H](CCC(N)=O)NC(=O)[C@H](N)CSSC[C@H](C(=O)NCCCCCCCC(=O)O)NC(=O)[C@@H](CC(C)C)NC(=O)[C@@H](CC(=O)O)NC(=O)[C@H]2CCCN2C(=O)[C@@H](CCCCN)NC(=O)[C@@H](CCC(N)=O)NC(=O)[C@@H](CCCCN)NC(=O)[C@@H](Cc2c[nH]c3ccccc23)NC1=O) | 99
H-[dC][dQ][dI][dW][dK][dQ][dK][dP][dD][dL][dC][dD]K(Octanoyl)-OH (disulfide 1-11; SMILES CCCCCCCC(=O)NCCCC[C@H](NC(=O)[C@@H](CC(=O)O)NC(=O)[C@H]1CSSC[C@@H](N)C(=O)N[C@H](CCC(N)=O)C(=O)N[C@H]([C@H](C)CC)C(=O)N[C@H](Cc2c[nH]c3ccccc23)C(=O)N[C@H](CCCCN)C(=O)N[C@H](CCC(N)=O)C(=O)N[C@H](CCCCN)C(=O)N2CCC[C@@H]2C(=O)N[C@H](CC(=O)O)C(=O)N[C@H](CC(C)C)C(=O)N1)C(=O)O) | 99
H-[dC][dQ][dI][dW][dK][dQ][dK][dP][dD][dL][dC][dV][dE]K(Octanoyl)-OH (disulfide 1-11; SMILES CCCCCCCC(=O)NCCCC[C@H](NC(=O)[C@@H](CCC(=O)O)NC(=O)[C@H](NC(=O)[C@H]1CSSC[C@@H](N)C(=O)N[C@H](CCC(N)=O)C(=O)N[C@H]([C@H](C)CC)C(=O)N[C@H](Cc2c[nH]c3ccccc23)C(=O)N[C@H](CCCCN)C(=O)N[C@H](CCC(N)=O)C(=O)N[C@H](CCCCN)C(=O)N2CCC[C@@H]2C(=O)N[C@H](CC(=O)O)C(=O)N[C@H](CC(C)C)C(=O)N1)C(C)C)C(=O)O) | 99
H-[dC][dQ][dI][dW][dK][dQ][dK][dP][dD][dL][dC][dV][dE][Aoc]-OH (disulfide 1-11; SMILES CC[C@@H](C)[C@H]1NC(=O)[C@@H](CCC(N)=O)NC(=O)[C@H](N)CSSC[C@H](C(=O)N[C@@H](C(=O)N[C@H](CCC(=O)O)C(=O)NCCCCCCCC(=O)O)C(C)C)NC(=O)[C@@H](CC(C)C)NC(=O)[C@@H](CC(=O)O)NC(=O)[C@H]2CCCN2C(=O)[C@@H](CCCCN)NC(=O)[C@@H](CCC(N)=O)NC(=O)[C@@H](CCCCN)NC(=O)[C@@H](Cc2c[nH]c3ccccc23)NC1=O) | 99
H-[dK][dD]CLDPKQKWIQC-NH2 (disulfide 3-13; SMILES CC[C@H](C)[C@@H]1NC(=O)[C@H](Cc2c[nH]c3ccccc23)NC(=O)[C@H](CCCCN)NC(=O)[C@H](CCC(N)=O)NC(=O)[C@H](CCCCN)NC(=O)[C@@H]2CCCN2C(=O)[C@H](CC(=O)O)NC(=O)[C@H](CC(C)C)NC(=O)[C@@H](NC(=O)[C@@H](CC(=O)O)NC(=O)[C@H](N)CCCCN)CSSC[C@@H](C(N)=O)NC(=O)[C@H](CCC(N)=O)NC1=O) | 94
Hexanoyl-CKWIQC-NH2 (disulfide 1-6; SMILES CCCCCC(=O)N[C@H]1CSSC[C@@H](C(N)=O)NC(=O)[C@H](CCC(N)=O)NC(=O)[C@H]([C@@H](C)CC)NC(=O)[C@H](Cc2c[nH]c3ccccc23)NC(=O)[C@H](CCCCN)NC1=O) | 98
Isobutyryl-CKWIQC-NH2 (disulfide 1-6; SMILES CC[C@H](C)[C@@H]1NC(=O)[C@H](Cc2c[nH]c3ccccc23)NC(=O)[C@H](CCCCN)NC(=O)[C@@H](NC(=O)C(C)C)CSSC[C@@H](C(N)=O)NC(=O)[C@H](CCC(N)=O)NC1=O) | 93.9
Isobutyryl-DKWIQK-NH2 (SMILES CC[C@H](C)[C@H](NC(=O)[C@H](Cc1c[nH]c2ccccc12)NC(=O)[C@H](CCCCN)NC(=O)[C@H](CC(=O)O)NC(=O)C(C)C)C(=O)N[C@@H](CCC(N)=O)C(=O)N[C@@H](CCCCN)C(N)=O) | 80.3

Bridge positions count the residues as written; N and C are the ends. Square brackets hold non-standard residues; d marks the D form. * marks the point of attachment. Isobutyryl = CC(C)C(=O)*; Octanoyl = CCCCCCCC(=O)*; Hexanoyl = CCCCCC(=O)*; AEEA = NCCOCCOCC(=O)O; Aoc = NCCCCCCCC(=O)O; Ahx = NCCCCCC(=O)O; X2 = CCCCCCO*
